# Source: patent US12102637B2, “Pharmaceutical formulations for treating endometriosis, uterine fibroids, polycystic ovary syndrome or adenomyosis” (AbbVie Inc., priority 2017, dated 2024)
# Tested on: menstrual bleeding
# Experiment: Effects on menstrual bleeding patterns (electronic daily diary; bleeding/spotting days, intensity, amenorrhea, resumption of menses)
# Type: in vivo, human
smiles,measurement,setting,value
"COc1cccc(-c2c(C)n(Cc3c(F)cccc3C(F)(F)F)c(=O)n(C[C@H](NCCCC(=O)O)c3ccccc3)c2=O)c1F [Compound A, 4-((R)-2-[5-(2-fluoro-3-methoxy-phenyl)-3-(2-fluoro-6-trifluoromethyl-benzyl)-4-methyl-2,6-dioxo-3,6-dihydro-2H-pyrimidin-1-yl]-1-phenyl-ethylamino)-butyric acid]","resumption of menses after stopping, % of women","after 6 months of therapy, 150 mg once daily, within 1 month",59%
same,"resumption of menses after stopping, % of women","after 6 months of therapy, 150 mg once daily, within 2 months",87%
same,"resumption of menses after stopping, % of women","after 6 months of therapy, 150 mg once daily, within 6 months",95%
same,"resumption of menses after stopping, % of women","after 6 months of therapy, 200 mg twice daily, within 1 month",60%
same,"resumption of menses after stopping, % of women","after 6 months of therapy, 200 mg twice daily, within 2 months",88%
same,"resumption of menses after stopping, % of women","after 6 months of therapy, 200 mg twice daily, within 6 months",97%
same,"resumption of menses after stopping, % of women","after 12 months of therapy, 150 mg once daily, within 1 month",77%
same,"resumption of menses after stopping, % of women","after 12 months of therapy, 150 mg once daily, within 2 months",95%
same,"resumption of menses after stopping, % of women","after 12 months of therapy, 150 mg once daily, within 6 months",98%
same,"resumption of menses after stopping, % of women","after 12 months of therapy, 200 mg twice daily, within 1 month",55%
same,"resumption of menses after stopping, % of women","after 12 months of therapy, 200 mg twice daily, within 2 months",91%
same,"resumption of menses after stopping, % of women","after 12 months of therapy, 200 mg twice daily, within 6 months",96%
